Results are given in words; binding and its absence hold for the method and conditions named. Binding seen in cells or lysates may run through a third protein. These calls come from enrichment with a bait or labelling near it, and not all partners need be listed.
target: HCAR1-Bio-ID fusion protein (HA-tagged HCAR1-BirA) (human) (UniProt Q9BXC0); experiment: proximity labelling; BioID2: stable HeLa cells expressing HCAR1-BioID2-HA, biotin 50 uM with 10 mM lactate or PBS; nuclei isolated, lysed in non-denaturing buffer, streptavidin beads, LC-MS/MS; enrichment against cells with BirA alone

Sequences of proteins named here, by UniProt entry; tags and fusion partners are left off.
UniProt Q9BXC0: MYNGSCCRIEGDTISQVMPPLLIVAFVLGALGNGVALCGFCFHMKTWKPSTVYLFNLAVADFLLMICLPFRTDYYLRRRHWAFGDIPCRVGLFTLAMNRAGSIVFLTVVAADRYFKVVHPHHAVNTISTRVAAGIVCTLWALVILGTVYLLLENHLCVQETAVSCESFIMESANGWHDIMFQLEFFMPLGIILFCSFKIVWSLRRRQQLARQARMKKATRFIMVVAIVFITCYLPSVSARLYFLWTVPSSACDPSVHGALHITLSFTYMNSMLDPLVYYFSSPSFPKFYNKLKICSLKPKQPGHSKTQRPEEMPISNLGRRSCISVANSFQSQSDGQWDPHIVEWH
UniProt Q9C086: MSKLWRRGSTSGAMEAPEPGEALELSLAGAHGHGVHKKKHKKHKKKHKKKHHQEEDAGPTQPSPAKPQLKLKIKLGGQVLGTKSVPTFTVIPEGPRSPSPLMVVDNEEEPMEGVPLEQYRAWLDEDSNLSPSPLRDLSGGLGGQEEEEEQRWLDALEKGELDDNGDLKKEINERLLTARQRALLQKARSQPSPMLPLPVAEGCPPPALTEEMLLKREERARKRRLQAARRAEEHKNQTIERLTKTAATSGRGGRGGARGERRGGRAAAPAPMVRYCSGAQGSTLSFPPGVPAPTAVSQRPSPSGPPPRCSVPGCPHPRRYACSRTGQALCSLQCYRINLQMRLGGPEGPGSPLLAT
UniProt Q96L73: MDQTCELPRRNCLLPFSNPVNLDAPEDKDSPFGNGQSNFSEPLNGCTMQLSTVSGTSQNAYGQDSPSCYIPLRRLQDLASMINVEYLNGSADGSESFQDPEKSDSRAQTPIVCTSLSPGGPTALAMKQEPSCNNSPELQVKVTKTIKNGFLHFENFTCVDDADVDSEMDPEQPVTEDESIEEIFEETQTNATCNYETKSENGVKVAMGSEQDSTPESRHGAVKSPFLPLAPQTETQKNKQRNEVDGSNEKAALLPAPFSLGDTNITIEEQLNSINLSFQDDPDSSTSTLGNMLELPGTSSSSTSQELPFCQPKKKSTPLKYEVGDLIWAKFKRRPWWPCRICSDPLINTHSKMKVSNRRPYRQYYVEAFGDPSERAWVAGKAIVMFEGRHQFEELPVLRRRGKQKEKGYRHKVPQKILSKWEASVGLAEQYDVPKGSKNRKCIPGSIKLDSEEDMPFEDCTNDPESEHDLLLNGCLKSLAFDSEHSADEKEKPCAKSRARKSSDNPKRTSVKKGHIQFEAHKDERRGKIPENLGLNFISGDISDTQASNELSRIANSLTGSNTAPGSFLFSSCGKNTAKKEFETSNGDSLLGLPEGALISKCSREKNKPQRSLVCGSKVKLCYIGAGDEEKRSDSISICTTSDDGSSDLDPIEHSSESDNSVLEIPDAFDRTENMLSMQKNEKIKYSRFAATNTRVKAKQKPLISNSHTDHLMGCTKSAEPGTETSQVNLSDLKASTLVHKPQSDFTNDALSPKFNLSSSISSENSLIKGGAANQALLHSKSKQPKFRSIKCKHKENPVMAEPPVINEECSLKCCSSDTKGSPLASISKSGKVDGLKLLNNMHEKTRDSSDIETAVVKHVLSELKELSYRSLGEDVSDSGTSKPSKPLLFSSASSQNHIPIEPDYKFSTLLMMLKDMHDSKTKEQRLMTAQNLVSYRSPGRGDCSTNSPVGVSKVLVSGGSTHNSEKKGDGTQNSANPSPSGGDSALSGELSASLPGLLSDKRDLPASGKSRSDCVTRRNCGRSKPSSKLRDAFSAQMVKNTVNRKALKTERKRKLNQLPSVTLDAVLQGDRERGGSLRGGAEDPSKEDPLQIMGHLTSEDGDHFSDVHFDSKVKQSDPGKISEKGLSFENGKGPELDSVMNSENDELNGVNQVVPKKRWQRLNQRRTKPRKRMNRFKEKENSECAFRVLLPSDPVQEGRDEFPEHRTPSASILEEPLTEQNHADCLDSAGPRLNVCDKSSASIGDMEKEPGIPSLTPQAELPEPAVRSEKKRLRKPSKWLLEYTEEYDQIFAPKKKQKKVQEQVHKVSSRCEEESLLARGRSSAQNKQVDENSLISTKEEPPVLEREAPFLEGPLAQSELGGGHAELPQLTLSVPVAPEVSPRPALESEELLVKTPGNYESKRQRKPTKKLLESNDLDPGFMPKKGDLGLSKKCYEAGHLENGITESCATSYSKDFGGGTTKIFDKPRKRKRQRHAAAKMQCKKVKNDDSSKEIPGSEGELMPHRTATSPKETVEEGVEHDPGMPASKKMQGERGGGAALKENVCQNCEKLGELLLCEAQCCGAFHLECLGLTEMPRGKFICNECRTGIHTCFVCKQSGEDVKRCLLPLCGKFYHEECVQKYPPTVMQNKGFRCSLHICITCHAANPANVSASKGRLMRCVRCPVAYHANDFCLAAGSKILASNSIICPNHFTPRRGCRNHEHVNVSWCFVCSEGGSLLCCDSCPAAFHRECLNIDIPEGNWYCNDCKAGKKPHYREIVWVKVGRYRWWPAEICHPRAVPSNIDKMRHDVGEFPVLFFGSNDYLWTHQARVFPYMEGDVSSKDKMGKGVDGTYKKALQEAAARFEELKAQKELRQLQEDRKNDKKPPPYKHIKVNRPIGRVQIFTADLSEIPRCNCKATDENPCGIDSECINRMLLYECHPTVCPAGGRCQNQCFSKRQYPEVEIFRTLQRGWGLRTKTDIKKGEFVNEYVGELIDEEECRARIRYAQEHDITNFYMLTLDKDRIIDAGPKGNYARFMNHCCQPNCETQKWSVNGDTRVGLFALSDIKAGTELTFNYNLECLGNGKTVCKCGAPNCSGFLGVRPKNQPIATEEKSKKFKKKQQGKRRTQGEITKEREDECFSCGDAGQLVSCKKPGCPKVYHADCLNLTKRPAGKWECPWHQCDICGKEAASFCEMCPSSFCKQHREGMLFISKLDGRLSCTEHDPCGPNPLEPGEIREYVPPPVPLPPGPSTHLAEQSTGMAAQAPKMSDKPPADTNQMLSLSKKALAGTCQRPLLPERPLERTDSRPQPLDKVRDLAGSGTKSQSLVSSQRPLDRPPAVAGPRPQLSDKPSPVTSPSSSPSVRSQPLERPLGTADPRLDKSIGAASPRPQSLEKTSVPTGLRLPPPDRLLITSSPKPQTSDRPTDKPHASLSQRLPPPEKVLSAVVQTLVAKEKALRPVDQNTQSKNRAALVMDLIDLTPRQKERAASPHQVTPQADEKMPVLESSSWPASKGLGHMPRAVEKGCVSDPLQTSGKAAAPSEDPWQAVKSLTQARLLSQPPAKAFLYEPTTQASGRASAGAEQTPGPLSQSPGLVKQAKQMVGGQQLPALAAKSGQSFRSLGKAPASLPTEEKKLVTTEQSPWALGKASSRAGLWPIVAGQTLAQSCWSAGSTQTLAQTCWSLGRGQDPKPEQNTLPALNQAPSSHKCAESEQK
UniProt Q92922: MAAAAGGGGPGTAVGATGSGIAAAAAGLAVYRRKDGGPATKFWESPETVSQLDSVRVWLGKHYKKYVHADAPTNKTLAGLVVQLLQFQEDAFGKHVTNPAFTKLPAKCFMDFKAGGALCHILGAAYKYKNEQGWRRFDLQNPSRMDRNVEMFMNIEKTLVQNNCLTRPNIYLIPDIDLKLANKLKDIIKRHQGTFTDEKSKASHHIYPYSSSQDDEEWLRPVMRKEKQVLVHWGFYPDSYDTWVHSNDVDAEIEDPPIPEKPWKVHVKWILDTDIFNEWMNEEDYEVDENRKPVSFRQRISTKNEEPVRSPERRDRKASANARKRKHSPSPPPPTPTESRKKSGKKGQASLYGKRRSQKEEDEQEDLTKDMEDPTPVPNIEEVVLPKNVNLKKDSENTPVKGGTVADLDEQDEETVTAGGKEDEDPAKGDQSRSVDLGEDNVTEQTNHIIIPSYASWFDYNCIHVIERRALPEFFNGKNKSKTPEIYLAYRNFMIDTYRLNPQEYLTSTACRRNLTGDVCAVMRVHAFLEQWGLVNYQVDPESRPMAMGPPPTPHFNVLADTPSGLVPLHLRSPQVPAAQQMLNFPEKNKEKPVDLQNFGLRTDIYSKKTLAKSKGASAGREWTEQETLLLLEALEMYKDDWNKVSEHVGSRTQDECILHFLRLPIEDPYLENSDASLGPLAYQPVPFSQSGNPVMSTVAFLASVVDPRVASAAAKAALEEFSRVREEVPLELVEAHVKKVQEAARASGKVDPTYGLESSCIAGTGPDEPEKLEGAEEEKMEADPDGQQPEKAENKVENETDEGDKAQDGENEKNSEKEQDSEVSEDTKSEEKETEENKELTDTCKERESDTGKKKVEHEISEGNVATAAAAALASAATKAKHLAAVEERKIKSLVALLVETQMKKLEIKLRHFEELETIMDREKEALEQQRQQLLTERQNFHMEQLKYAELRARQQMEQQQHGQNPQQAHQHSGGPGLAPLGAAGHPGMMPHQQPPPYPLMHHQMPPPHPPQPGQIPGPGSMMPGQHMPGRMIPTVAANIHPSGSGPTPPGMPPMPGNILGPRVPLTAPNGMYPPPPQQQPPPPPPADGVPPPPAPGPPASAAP

binding, binds:
INO80b (from UniProt Q9C086 1-356), NSD1 (from UniProt Q96L73 1-2696) (enzyme), SMARCC1 (from UniProt Q92922 1-1105)
